# This is one part of the list.
# B1: EULS2 M1 (Oryza sativa) (protein)
# chain: MVYCRANPNYAMTARNGAVVLAPANPKDEYQHWIKDMRWSTSIKDEEGYPAFALVNKATGQAIKHSLGQSHPVRLVPYNPEVMDESVLWTESRDVGNGFRCIRMVNNIYLNFDAFHGDKYHGGVRDGTDIVLWKLCEGDNQRWKIQPYYILEQKLISEEDLNSAVDHHHHHH
# Legend:
# Assay in all cases: glycan array binding signal (z-score within array); higher = stronger binding
# Details in all cases: glycan notation: IUPAC condensed, linker removed
# [1] = biological target: Fuc(a1-2)[GalNAc(a1-3)]Gal(b1-3)GlcNAc(b1-6)GalNAc
# Summary of the method: (§1)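 Glycan array data came from 3228 arrays in the Consortium for Functional Glycomics database, and only arrays with an available protein sequence were kept. Glycan names were put into IUPAC-condensed notation, and columns mapping to the same glycan were averaged. The binding signal is a within-array Z-score, averaged across arrays of one protein sequence run at different concentrations or buffers and across linkers. A negative Z-score can be read as non-binding.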
# [2] = biological target: Fuc(a1-2)[GalNAc(a1-3)]Gal(b1-4)Glc
# Summary of the method: as §1
# [3] = biological target: Fuc(a1-2)[GalNAc(a1-3)]Gal(b1-4)GlcNAc
# Summary of the method: as §1
# [4] = biological target: Fuc(a1-2)[GalNAc(a1-3)]Gal(b1-4)GlcNAc(b1-2)Man
# Summary of the method: as §1
# [5] = biological target: Fuc(a1-2)[GalNAc(a1-3)]Gal(b1-4)GlcNAc(b1-2)Man(a1-3)[Fuc(a1-2)[GalNAc(a1-3)]Gal(b1-4)GlcNAc(b1-2)Man(a1-6)]Man(b1-4)GlcNAc(b1-4)GlcNAc
# Summary of the method: as §1
# [6] = biological target: Fuc(a1-2)[GalNAc(a1-3)]Gal(b1-4)GlcNAc(b1-2)Man(a1-3)[Fuc(a1-2)[GalNAc(a1-3)]Gal(b1-4)GlcNAc(b1-2)Man(a1-6)]Man(b1-4)GlcNAc(b1-4)[Fuc(a1-6)]GlcNAc
# Summary of the method: as §1
# [7] = biological target: Fuc(a1-2)[GalNAc(a1-3)]Gal(b1-4)GlcNAc(b1-3)Gal(b1-4)GlcNAc
# Summary of the method: as §1
# [8] = biological target: Fuc(a1-2)[GalNAc(a1-3)]Gal(b1-4)GlcNAc(b1-3)Gal(b1-4)GlcNAc(b1-3)Gal(b1-4)GlcNAc
# Summary of the method: as §1
# [9] = biological target: Fuc(a1-2)[GalNAc(a1-3)]Gal(b1-4)GlcNAc(b1-3)GalNAc
# Summary of the method: as §1
# [10] = biological target: Fuc(a1-2)[GalNAc(a1-3)]Gal(b1-4)GlcNAc(b1-3)[Fuc(a1-2)[GalNAc(a1-3)]Gal(b1-4)GlcNAc(b1-6)]GalNAc
# Summary of the method: as §1
# [11] = biological target: Fuc(a1-2)[GalNAc(a1-3)]Gal(b1-4)GlcNAc(b1-6)GalNAc
# Summary of the method: as §1
# [12] = biological target: Fuc(a1-2)[GalNAc(a1-3)]Gal(b1-4)[Fuc(a1-3)]GlcNAc
# Summary of the method: as §1
# [13] = biological target: Fuc(a1-2)[GalNAc(a1-3)]Gal(b1-4)[Fuc(a1-3)]GlcNAc(b1-3)GalNAc
# Summary of the method: as §1
# [14] = biological target: Fuc(a1-2)[GalNAc(a1-4)]Gal(b1-4)GlcNAc
# Summary of the method: as §1
# [15] = biological target: Fuc(a1-2)[GalNAc(b1-3)]Gal
# Summary of the method: as §1
# Fuc(a1-3)GlcNAc = biological target: Fuc(a1-3)GlcNAc
# Summary of the method: as §1
# [16] = biological target: Fuc(a1-3)[Gal(b1-4)]Glc6S
# Summary of the method: as §1
# [17] = biological target: Fuc(a1-3)[Gal(b1-4)]GlcNAc
# Summary of the method: as §1
# [18] = biological target: Fuc(a1-3)[Gal(b1-4)]GlcNAc(b1-2)Man
# Summary of the method: as §1
# [19] = biological target: Fuc(a1-3)[Gal(b1-4)]GlcNAc(b1-2)Man(a1-3)[Fuc(a1-3)[Gal(b1-4)]GlcNAc(b1-2)Man(a1-6)]Man(b1-4)GlcNAc(b1-4)GlcNAc
# Summary of the method: as §1
# [20] = biological target: Fuc(a1-3)[Gal(b1-4)]GlcNAc(b1-2)Man(a1-3)[Fuc(a1-3)[Gal(b1-4)]GlcNAc(b1-2)Man(a1-6)]Man(b1-4)GlcNAc(b1-4)[Fuc(a1-6)]GlcNAc
# Summary of the method: as §1
# [21] = biological target: Fuc(a1-3)[Gal(b1-4)]GlcNAc(b1-3)Gal(b1-3)[Fuc(a1-4)]GlcNAc
# Summary of the method: as §1
# [22] = biological target: Fuc(a1-3)[Gal(b1-4)]GlcNAc(b1-3)Gal(b1-4)[Fuc(a1-3)]GlcNAc
# Summary of the method: as §1
# [23] = biological target: Fuc(a1-3)[Gal(b1-4)]GlcNAc(b1-3)Gal(b1-4)[Fuc(a1-3)]GlcNAc(b1-3)Gal(b1-4)[Fuc(a1-3)]GlcNAc
# Summary of the method: as §1
# [24] = biological target: Fuc(a1-3)[Gal(b1-4)]GlcNAc(b1-3)GalNAc
# Summary of the method: as §1
# [25] = biological target: Fuc(a1-3)[Gal(b1-4)]GlcNAc(b1-6)GalNAc
# Summary of the method: as §1
# [26] = biological target: Fuc(a1-3)[Gal(b1-4)]GlcNAc(b1-6)[Gal(b1-3)GlcNAc(b1-3)]Gal(b1-4)Glc
# Summary of the method: as §1
# [27] = biological target: Fuc(a1-3)[Gal(b1-4)]GlcNAc6S
# Summary of the method: as §1
# [28] = biological target: Fuc(a1-3)[Gal3S(b1-4)]Glc
# Summary of the method: as §1
# [29] = biological target: Fuc(a1-3)[Gal3S(b1-4)]GlcNAc
# Summary of the method: as §1
# [30] = biological target: Fuc(a1-3)[Gal3S(b1-4)]GlcNAc6S
# Summary of the method: as §1
# [31] = biological target: Fuc(a1-3)[GalNAc(b1-4)]GlcNAc
# Summary of the method: as §1
# [32] = biological target: Fuc(a1-3)[GalNAc(b1-4)]GlcNAc6S
# Summary of the method: as §1
# Fuc(a1-4)GlcNAc = biological target: Fuc(a1-4)GlcNAc
# Summary of the method: as §1
# Fuc(b1-3)GlcNAc = biological target: Fuc(b1-3)GlcNAc
# Summary of the method: as §1
# Gal(a1-2)Gal = biological target: Gal(a1-2)Gal
# Summary of the method: as §1
# Gal(a1-3)Gal = biological target: Gal(a1-3)Gal
# Summary of the method: as §1
binder,measurement,setting,value
B1,glycan array binding signal (z-score),[1],0.727
same,glycan array binding signal (z-score),[2],1.69
same,glycan array binding signal (z-score),[3],-0.05
same,glycan array binding signal (z-score),[4],-1
same,glycan array binding signal (z-score),[5],-0.654
same,glycan array binding signal (z-score),[6],1.96
same,glycan array binding signal (z-score),[7],-0.473
same,glycan array binding signal (z-score),[8],-1.42
same,glycan array binding signal (z-score),[9],-0.543
same,glycan array binding signal (z-score),[10],-0.925
same,glycan array binding signal (z-score),[11],-0.79
same,glycan array binding signal (z-score),[12],0.407
same,glycan array binding signal (z-score),[13],-1.61
same,glycan array binding signal (z-score),[14],-0.015
same,glycan array binding signal (z-score),[15],-0.425
same,glycan array binding signal (z-score),Fuc(a1-3)GlcNAc,-0.551
same,glycan array binding signal (z-score),[16],-0.049
same,glycan array binding signal (z-score),[17],0.301
same,glycan array binding signal (z-score),[18],-0.708
same,glycan array binding signal (z-score),[19],0.033
same,glycan array binding signal (z-score),[20],-0.383
same,glycan array binding signal (z-score),[21],-0.151
same,glycan array binding signal (z-score),[22],-0.138
same,glycan array binding signal (z-score),[23],-0.074
same,glycan array binding signal (z-score),[24],-0.322
same,glycan array binding signal (z-score),[25],-0.281
same,glycan array binding signal (z-score),[26],-0.03
same,glycan array binding signal (z-score),[27],-0.261
same,glycan array binding signal (z-score),[28],-0.213
same,glycan array binding signal (z-score),[29],-0.555
same,glycan array binding signal (z-score),[30],0.046
same,glycan array binding signal (z-score),[31],0.088
same,glycan array binding signal (z-score),[32],-0.713
same,glycan array binding signal (z-score),Fuc(a1-4)GlcNAc,-0.4
same,glycan array binding signal (z-score),Fuc(b1-3)GlcNAc,0.184
same,glycan array binding signal (z-score),Gal(a1-2)Gal,0.889
same,glycan array binding signal (z-score),Gal(a1-3)Gal,0.188

# In a second layout: entries from further up.
binder | measurement | setting | value
B1 | glycan array binding signal (z-score) | [1] | 0.727
same | glycan array binding signal (z-score) | [9] | -0.543

# Source: the supplement of paper PMC8728848
